For test [1], the system named is B2 lymphocytes originating from patients. In words: Induction of cell death of B chronic lymphoid leukemia cells (B2 lymphocytes) from patients. Format: cell-based. As to conditions: Homo sapiens, Lymphocyte, read-out: Induction of cell death (IC50). As to the method: The B2 lymphocytes are lymphocytes involved in […] chronic lymphoid leukemia.
Cell viability is determined by the reduction of 3-(4,5-dimethylthiazol-2-yl)-5-(3-carboxymethoxyphenyl)-2-(4-sulfophenyl)-2H-tetrazolium (MTS).
Cell death is determined by the measurement of the level of the activity of the lactate dehydrogenase (LDH) released during lysis of the cells. The two processes are described in detail in “Ribas J. and Boix J. Cell differentiation, caspase inhibition, and macromolecular synthesis blockage, but not BCL-2 or BCL-XL proteins protect SH-SY5Y cells from apoptosis triggered by two CDK inhibitory drugs.
In table 2, the values shown are the mean inhibitory concentration IC50 values, expressed in μM.

The target in a further test is CK1δ/e. The test can be described thus: Kinase assay CK1. As to conditions: read-out: IC50 CK1; 15 μM ATP, 30° C., buffer A.
The next test concerns the target GSK-3 α/β. In words: Kinase assay GSK-3α/β. Format: biochemical, pig. As to conditions: 15 μM ATP, 30° C., buffer A, GS-1 substrate. How it is done: After incubating at 30° C. for 30 min, 25 μl aliquots of supernatant were deposited on 2.5×3 cm pieces of Whatman P8 phosphocellulose papers and then, 20 sec. later, the filters were washed 5 times in a solution of 10 ml of phosphoric acid/liter. The filters are subsequently counted in the presence of 1 ml of ACS (Amersham).
The mean inhibitory concentration IC50 values were calculated from the dose/response curves and are listed in μM in the following table I.

In general, IC50 refers to the concentration needed to halve the response being measured.

Take `CC[C@H](CO)Nc1nc(NCc2ccccc2)c2ncn(C(C)C)c2n1` [(R)-Roscovitine, reference compound]: the results for the half-inhibitory concentration (IC50) (in test [1]; on CK1δ/e; at GSK-3 α/β) were 8.96 µM, 4 µM and 60 µM, respectively.

Values taken from patent US8431583B2, “Use of purine derivatives for the manufacture of a medicament” (Centre National de la Recherche Scientifique, priority 2007, dated 2013).
